From paper PMC12537940
No constants are given. Whether binding was seen depends on the method and setting. In cells and extracts the contact can be indirect. Some results given as binding are weak or reduced against the parent protein; the word gives no strength.

Amino acid sequences for entries named in this document (tags omitted). Residues count along the entry.
UniProt P11688, residues 45-1053: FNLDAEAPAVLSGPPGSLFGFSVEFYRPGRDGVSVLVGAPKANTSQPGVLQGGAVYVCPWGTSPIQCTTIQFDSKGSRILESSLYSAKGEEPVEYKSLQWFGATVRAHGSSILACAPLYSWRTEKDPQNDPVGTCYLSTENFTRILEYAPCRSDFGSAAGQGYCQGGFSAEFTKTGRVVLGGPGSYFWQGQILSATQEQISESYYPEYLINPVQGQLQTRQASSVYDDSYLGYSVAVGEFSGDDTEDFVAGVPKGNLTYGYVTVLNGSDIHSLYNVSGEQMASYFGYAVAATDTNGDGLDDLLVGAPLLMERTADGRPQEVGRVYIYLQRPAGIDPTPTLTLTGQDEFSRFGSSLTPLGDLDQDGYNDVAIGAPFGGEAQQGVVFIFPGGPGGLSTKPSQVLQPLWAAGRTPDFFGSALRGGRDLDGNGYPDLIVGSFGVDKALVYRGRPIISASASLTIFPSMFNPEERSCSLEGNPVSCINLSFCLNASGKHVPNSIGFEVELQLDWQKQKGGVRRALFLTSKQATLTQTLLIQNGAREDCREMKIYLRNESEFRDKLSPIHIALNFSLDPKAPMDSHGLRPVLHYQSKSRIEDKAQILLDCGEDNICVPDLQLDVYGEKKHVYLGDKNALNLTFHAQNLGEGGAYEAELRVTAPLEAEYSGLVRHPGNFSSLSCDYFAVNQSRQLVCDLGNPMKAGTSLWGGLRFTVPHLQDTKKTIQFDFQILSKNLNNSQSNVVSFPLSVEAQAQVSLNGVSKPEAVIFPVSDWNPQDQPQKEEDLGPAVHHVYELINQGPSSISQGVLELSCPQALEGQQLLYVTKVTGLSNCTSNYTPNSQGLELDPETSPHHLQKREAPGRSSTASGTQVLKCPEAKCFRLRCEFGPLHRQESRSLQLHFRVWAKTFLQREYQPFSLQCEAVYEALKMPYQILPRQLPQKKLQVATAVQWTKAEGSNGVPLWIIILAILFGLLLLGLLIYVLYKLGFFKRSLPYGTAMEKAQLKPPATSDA
UniProt Q8K3K8: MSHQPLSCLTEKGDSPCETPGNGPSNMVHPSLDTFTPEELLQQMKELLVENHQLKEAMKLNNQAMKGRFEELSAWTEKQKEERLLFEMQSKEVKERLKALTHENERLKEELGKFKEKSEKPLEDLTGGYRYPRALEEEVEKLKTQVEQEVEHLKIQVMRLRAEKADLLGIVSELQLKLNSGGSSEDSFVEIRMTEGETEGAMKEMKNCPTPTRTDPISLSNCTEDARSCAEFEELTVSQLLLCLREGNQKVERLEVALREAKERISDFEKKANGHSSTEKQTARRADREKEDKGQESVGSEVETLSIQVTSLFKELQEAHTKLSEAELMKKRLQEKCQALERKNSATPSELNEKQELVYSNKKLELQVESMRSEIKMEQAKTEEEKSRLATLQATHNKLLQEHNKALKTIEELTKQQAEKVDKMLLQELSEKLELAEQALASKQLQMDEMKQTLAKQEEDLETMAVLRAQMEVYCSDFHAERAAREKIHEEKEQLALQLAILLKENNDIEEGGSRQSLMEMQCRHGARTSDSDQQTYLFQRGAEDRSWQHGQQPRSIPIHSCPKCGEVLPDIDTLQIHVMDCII

How the values were obtained:
[1] = target: integrin α5 (mouse (endogenous in Atg5KO MEFs)) (UniProt P11688); assay: co-IP; anti-integrin α5 antibody coupled to Dynabeads protein G; lysate of Atg5KO MEFs, basal or treated with etoposide, with or without TAK-243 (100 nM) for 12 hr before collection
mesothelin (Msln) = target: T1, mesothelin (Msln) (UniProt Q61468); assay: co-IP; anti-MSLN antibody coupled to Dynabeads protein G; with or without etoposide and TAK-243 (Supplementary Fig. 15l); cells not given
T1 sequence: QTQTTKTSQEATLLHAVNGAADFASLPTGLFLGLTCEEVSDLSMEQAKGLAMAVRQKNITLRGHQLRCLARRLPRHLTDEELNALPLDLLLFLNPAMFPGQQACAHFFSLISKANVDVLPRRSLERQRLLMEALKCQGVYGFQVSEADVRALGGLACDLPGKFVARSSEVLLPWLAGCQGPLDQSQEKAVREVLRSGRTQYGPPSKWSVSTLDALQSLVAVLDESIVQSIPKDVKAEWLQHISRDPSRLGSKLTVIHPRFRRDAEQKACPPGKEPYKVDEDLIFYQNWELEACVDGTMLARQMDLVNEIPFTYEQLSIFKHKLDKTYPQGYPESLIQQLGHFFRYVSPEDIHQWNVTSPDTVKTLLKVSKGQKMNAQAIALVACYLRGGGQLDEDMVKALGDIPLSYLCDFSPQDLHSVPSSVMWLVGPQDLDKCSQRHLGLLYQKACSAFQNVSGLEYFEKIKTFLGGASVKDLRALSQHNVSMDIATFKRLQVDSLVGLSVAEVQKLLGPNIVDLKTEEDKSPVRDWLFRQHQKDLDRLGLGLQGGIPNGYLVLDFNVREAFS

Substance: optineurin (Optn) (from UniProt Q8K3K8 1-584)
- binding [1]: binds
- binding (mesothelin (Msln)): binds
